Test results from PubChem BioAssay AID2551 (National Center for Advancing Translational Sciences (NCATS), 2010).
“And” between values parts separate entries of the source, which are not always exact repeats. Equal entries are not always repeated. Screen size: about 310,000 compounds; about 17,000 (5.5%) were called active. Inconclusive means that the source gave no clear call. Such entries were picked first, then a sample of the others. The call rests on the fitted dose curve; in most records, active means well fitted inhibition curve with a large enough effect; inconclusive means small, poorly fitted or top-dose-only effect, or effect the other way; inactive means no such curve, though single readings can be large or run the other way. Potencies beside an inconclusive call are fits to weak or partial responses and may not hold up.

The chains behind the UniProt entries cited, without tags or fusion partners. Where a name states a change or a piece, a line headed by the entry shows the natural chain unless it says otherwise.
UniProt P51450: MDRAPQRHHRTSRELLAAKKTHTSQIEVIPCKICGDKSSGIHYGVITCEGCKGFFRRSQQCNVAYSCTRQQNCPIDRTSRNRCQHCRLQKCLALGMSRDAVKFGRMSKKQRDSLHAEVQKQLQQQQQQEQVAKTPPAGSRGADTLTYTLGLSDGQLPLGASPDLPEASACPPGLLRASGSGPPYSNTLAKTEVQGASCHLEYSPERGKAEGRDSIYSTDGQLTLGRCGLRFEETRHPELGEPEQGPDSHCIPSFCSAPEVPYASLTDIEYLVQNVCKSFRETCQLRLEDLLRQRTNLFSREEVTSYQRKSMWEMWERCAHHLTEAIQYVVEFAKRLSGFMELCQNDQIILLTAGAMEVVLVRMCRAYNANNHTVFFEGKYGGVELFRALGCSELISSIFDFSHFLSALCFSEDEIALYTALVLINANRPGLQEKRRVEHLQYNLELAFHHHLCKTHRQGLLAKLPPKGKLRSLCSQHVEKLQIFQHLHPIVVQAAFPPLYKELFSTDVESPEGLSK

Molecular target: Nuclear receptor ROR-gamma (Mus musculus) (UniProt P51450)
Experiment: qHTS for inhibitors of ROR gamma transcriptional activity; further: nearly all actives have a fitted effect of over 60% in size
Settings: Drosophila S2 Gal4-RORgamma UAS-luciferase reporter, 20 h; activity change, negative = inhibition: at 53.6 µM (top of the series)
Summary of the method: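 Drosophila S2 cells stably expressing Gal4-DBD/mouse RORγ fusion under metallothionein promoter plus UAS-luciferase; compound 1 h, then 700 uM CuSO4 induction for 20 h at ambient temperature; inhibition read as reduced luminescence.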
On the % scale 0 is the no-effect control and ±100 the full control effect; potency means the concentration at half of the fitted maximal effect.

SMILES	Potency	activity change, negative = inhibition
C#CCSc1nnc(CSc2nc3ccccc3s2)n1-c1ccccc1	inactive	–
COc1cccc2c(=O)n(CC(=O)NC3CCCCC3)ccc12	inconclusive: 1 µM [activator, full curve, poor fit]	–
Cc1ccc(O)c(C(=O)c2cc(C(=O)NCCc3ccccc3)c(=O)n(CCc3ccccc3)c2)c1	inconclusive: 12.6 µM [activator, partial curve]	–
CCCCCN(C(=O)NC(=O)Nc1nncs1)S(C)(=O)=O	active: 11.2 µM	–
C/C(CC(=O)N(C(C)C)C(C)C)=N\NC(=O)COc1ccc(Cl)cc1Cl	inconclusive: 35.5 µM [inhibitor, single point]	–
O=C(CN1C(=O)c2cccc3cccc1c23)NCc1ccc2c(c1)OCO2	inactive	–
CCCOC(=S)Nc1ccccc1	active: 11.2 µM	–
Cc1ccc(-c2cc(Cc3ccccn3)c(=O)[nH]n2)cc1	inconclusive: 35.5 µM [activator, single point]	–
COc1ccc(C(=O)Nc2ccc(NC(=O)Cc3ccccc3)cn2)cc1	inactive	–
O=C(Cn1ncc2c3ccccc3n(Cc3ccccc3)c2c1=O)NCCCN1CCOCC1	inactive	–
COc1ccc(C2=NOC(C(=O)Nc3ccc4c(c3)OCCO4)C2)cc1OC (stereo not given)	inactive	–
Clc1ccccc1-c1nc(NCc2cccs2)c2ccccc2n1	inconclusive: 3.98 µM [activator, partial curve]	–
CCOC(=O)C1=C(C)N(C)C(=S)NC1c1ccc(Cl)cc1 (stereo not given)	inconclusive: 6.31 µM [inhibitor, full curve, poor fit]	–
CC(C)(C)c1cc(CCC(=O)NNC(=S)NC(=O)c2ccccc2)cc(C(C)(C)C)c1O	active: 11.2 µM	–
COc1cc(NS(=O)(=O)c2ccc3ccccc3c2)c2ncccc2c1	active: 1.12 µM and active: 178 nM	–
CC12CCC=CC1C(c1ccc(C(F)(F)F)cc1)N(Cc1ccccc1)C2=O (stereo not given)	inconclusive: 31.6 µM [inhibitor, single point]	–
Cc1ccccc1OCC(=O)NN1CCN(C)CC1	inconclusive: 5.62 µM [inhibitor, partial curve]	–
Cc1ccc(-c2nnc(OCc3cccnc3)c3ccccc23)cc1	inconclusive: 11.2 µM [activator, partial curve]	–
COc1ccc(C(=O)NNC(=S)NC(=O)c2cccs2)cc1	inconclusive: 10 µM [inhibitor, partial curve]	–
COc1ccc(-n2c(=S)[nH]c3cc(C(=O)N(C)Cc4ccccc4)ccc3c2=O)cc1	active: 7.94 µM	–
Oc1c(Cl)cccc1C=Nc1cc(C(F)(F)F)ccc1N1CCCC1	active: 11.2 µM	–
CC(Cl)C(=O)N1c2ccccc2CCc2ccccc21 (stereo not given)	inactive	–
Cc1ccc(N(CC(=O)NC2CCCCC2)C(=O)CNC(=O)c2ccco2)c(C)c1	inactive	–
CCCn1c(=N)c(S(=O)(=O)c2ccc(F)cc2)cc2c(=O)n3cccc(C)c3nc21	inactive	–
CC(C)Oc1ccccc1/C=N/NC(=O)c1ccccc1Cl	inconclusive: 10 µM [inhibitor, partial curve]	–

SMILES	Potency	activity change, negative = inhibition
CCN1CCc2c(sc(NC(=S)NC(=O)c3ccc(Cl)cc3)c2C(N)=O)C1	inactive	–
Cc1ccc(NC(=S)N2CCN(c3ccccc3F)CC2)c(C)c1	active: 8.91 µM	–
CC(C)(C)C(=O)COC(=O)c1cc(-c2cccnc2)nc2ccccc12	inconclusive: 31.6 µM [inhibitor, single point]	–
COc1cccc(CNC(=O)c2ccc(Cl)c(NC3=NC4CS(=O)(=O)CC4S3)c2)c1 (stereo not given)	inactive	–
CCC(=O)N(CCC(Cc1ccccc1)c1ccc2c(c1)OCO2)Cc1ccccc1F (stereo not given)	inconclusive: 35.5 µM [activator, single point]	–
COc1cccc(/C=N/c2nc3ccccc3[nH]2)c1O	inconclusive: 15.8 µM [inhibitor, single point]	–
CC1CCCN(Cc2c(O)ccc3c2O/C(=C\c2ccco2)C3=O)C1 (stereo not given)	inactive	–
Cc1ccc(C(=O)C[n+]2cc(-c3ccc(C)cc3)n3c2CCCCC3)cc1	inconclusive: 3.98 µM [inhibitor, partial curve, poor fit]	–
COc1cccc(/C=N/NC(N)=S)c1OS(=O)(=O)c1ccccc1	inconclusive: 14.1 µM [inhibitor, partial curve, poor fit]	–
COc1cccc(NC(=O)CSc2nnc(C)s2)c1	inactive	–
CCc1ccc(NS(=O)(=O)c2ccc3oc(=O)ccc3c2)cc1	inconclusive: 7.08 µM [activator, full curve, poor fit]	–
CN(CC(=O)Nc1ccc(Cl)c(C(F)(F)F)c1)C(=O)c1cccnc1Sc1ccccc1	inconclusive: 11.2 µM [activator, partial curve]	–
Cc1oc(C)c2c(=O)ccc3c(c12)OC(N)=C(C#N)C3c1ccc(F)cc1 (stereo not given)	inactive	–
COc1ccc(-c2nnc(SCC(=O)c3cccs3)o2)cc1	inconclusive: 0.0891 µM [activator, full curve]	–
c1ccc(-c2ncc3c(ccc4ccccc43)n2)cc1	inconclusive: 2.24 µM [inhibitor, full curve]	–
COc1cc(NS(=O)(=O)c2ccc(N/C=C\C(=O)c3ccc(OC)c(OC)c3)cc2)nc(OC)n1	–	inactive: 19% [at 10 µM]
CCCC(=O)Nc1cc(-c2nn(C)c(=O)c3ccccc23)ccc1OC	inconclusive: 25.1 µM [inhibitor, single point]	–
Fc1ccc(-c2noc(-c3ccc4c(c3)CCO4)n2)cc1	inactive	–
COCCNC(=S)NNC(=O)CSCc1ccc(Cl)cc1Cl	active: 10 µM	–
COCCNC(=S)N/N=C/c1ccccc1C(=O)O	inactive	–
O=C(N/N=C/c1cccc(C(F)(F)F)c1)c1ccccc1O	active: 10 µM	–
CNS(=O)(=O)c1cccc(C(=O)OCC(=O)/C=C2/N(C)c3ccccc3C2(C)C)c1	inconclusive: 35.5 µM [inhibitor, single point]	–
COc1ccc(/C=C/C2=CC(C)(C)NC(=S)N2)cc1OC	active: 3.16 µM	–
O=C(Nc1ccc(Br)cc1)c1cccc(N2C(=O)C3C4CCC(C4)C3C2=O)c1 (stereo not given)	inconclusive: 20 µM [activator, partial curve, poor fit]	–
CCOc1ccccc1NC(=O)C12CC3CC(C1)CC(c1ccc(C)cc1)(C3)C2	inactive	–

SMILES	Potency	activity change, negative = inhibition
CCOc1cccc(CN(C)CC2CCCN(CCc3ccc(Cl)cc3)C2)c1O (stereo not given)	inconclusive: 35.5 µM [inhibitor, single point]	–
CCOc1ccc(NC2OC(CO)C(O)C(O)C2O)c([N+](=O)[O-])c1 (stereo not given)	inactive	–
C=CCNC(=S)NNC(=O)c1cccc(Br)c1	inconclusive: 0.282 µM [inhibitor, full curve, poor fit]	–
Clc1ccc(-n2nnnc2SCc2c(-c3ccccc3)nc3sccn23)cc1	inconclusive: 20 µM [inhibitor, partial curve, poor fit]	–
COC(=O)c1ccc(CC(=O)c2c(C)cc(O)cc2O)o1	active: 11.2 µM	–
O=C1NC2(CCCCCC2)N=C1c1ccc(F)cc1	inactive	–
O=C(N/N=C/c1sc(=O)n(-c2ccccc2)c1Cl)c1ccccc1	inconclusive: 35.5 µM [inhibitor, single point]	–
c1ccc2sc(N3CCN(Cc4ccc5c(c4)OCO5)CC3)nc2c1	inconclusive: 7.08 µM [activator, full curve, poor fit]	–
Cc1cc(C)cc(C(=O)N(NC(=O)Nc2ccc(Cl)cc2)C(C)(C)C)c1	inconclusive: 35.5 µM [inhibitor, single point]	–
Cc1ccc(NC(=O)CN2C(=O)S/C(=C\c3ccc(-c4cccc(C(=O)O)c4C)o3)C2=O)cc1	inconclusive: 0.794 µM [inhibitor, full curve, poor fit]	–
COc1cc(/C=C(\C#N)C(=O)Nc2ccccc2F)ccc1OCCN1CCOCC1	inconclusive: 31.6 µM [inhibitor, single point]	–
COC(=O)[C@@]1(Cc2ccc(F)cc2)[C@@H]2C(=CC(=O)[C@H]2CC(=O)C(=O)N2CCCC2)CN1C(=O)c1ccccc1	active: 14.1 µM	–
O=C(c1cccc(F)c1)N1CCC2(CCCN(Cc3cc(C(F)(F)F)cc(C(F)(F)F)c3)C2)CC1	inactive	–
O=C1Nc2ccc(Cl)cc2[C@@](C#CC2CC2)(C(F)(F)F)O1	inactive	–
COc1ccc(N2C(=S)N=C(Nc3cccc(C)c3)C23CCCCC3)cc1	active: 2.24 µM	–
Cc1ccc(Cn2c(=S)[nH]c3ccc(N4CCOCC4)cc3c2=O)o1	active: 3.16 µM	–
O=C(N/N=C\c1cccc(Cl)c1)c1ccc(Cn2cc(Br)c([N+](=O)[O-])n2)o1	inconclusive: 11.2 µM [activator, partial curve]	–
CCC(CC)N1CCN(S(=O)(=O)c2ccc(OC)cc2)CC1	–	inactive: 6.22% [at 1.91 µM]
CC(=O)c1ccc(N2CCN(C(=O)c3cc4c(s3)CCCC4)CC2)cc1	inactive	–
Nc1[nH]nc2nc3ccccc3cc12	inactive	–
CNC(=O)c1[nH]cnc1C(=O)N[C@@H](CC(C)C)C(=O)OC(C)(C)C	inconclusive: 2.82 µM [inhibitor, single point]	–
COC(=O)c1ccccc1NC(=S)NC(=O)c1ccccc1F	active: 12.6 µM	–
CCCCc1ccc(NC=C2C(=O)OC3(CCCCC3)OC2=O)cc1	inconclusive: 35.5 µM [inhibitor, single point]	–
CCOC(=O)CNC(=O)CNC(=O)c1ccc(OC(C)C)cc1	inactive	–
CCOC(=O)CN(Cc1sccc1C)C(=O)Nc1cccc(OC)c1	inconclusive: 11.2 µM [activator, partial curve]	–

Given as a markdown table: 5 of the compounds above.

| SMILES | Potency | activity change, negative = inhibition |
| --- | --- | --- |
| Cc1ccc(NC(=O)CN2C(=O)S/C(=C\c3ccc(-c4cccc(C(=O)O)c4C)o3)C2=O)cc1 | inconclusive: 0.794 µM [inhibitor, full curve, poor fit] | – |
| COc1cc(/C=C(\C#N)C(=O)Nc2ccccc2F)ccc1OCCN1CCOCC1 | inconclusive: 31.6 µM [inhibitor, single point] | – |
| COC(=O)[C@@]1(Cc2ccc(F)cc2)[C@@H]2C(=CC(=O)[C@H]2CC(=O)C(=O)N2CCCC2)CN1C(=O)c1ccccc1 | active: 14.1 µM | – |
| O=C(c1cccc(F)c1)N1CCC2(CCCN(Cc3cc(C(F)(F)F)cc(C(F)(F)F)c3)C2)CC1 | inactive | – |
| O=C1Nc2ccc(Cl)cc2[C@@](C#CC2CC2)(C(F)(F)F)O1 | inactive | – |
